Measurements reported in the supplement of paper PMC6411743.
± gives the standard deviation of the averaged measurements. Some of the results follow.

Sequences of proteins named here, by UniProt entry; tags and fusion partners are left off. A change or cut given only in a name is not applied to a line headed by its entry.
UniProt Q0PNE2: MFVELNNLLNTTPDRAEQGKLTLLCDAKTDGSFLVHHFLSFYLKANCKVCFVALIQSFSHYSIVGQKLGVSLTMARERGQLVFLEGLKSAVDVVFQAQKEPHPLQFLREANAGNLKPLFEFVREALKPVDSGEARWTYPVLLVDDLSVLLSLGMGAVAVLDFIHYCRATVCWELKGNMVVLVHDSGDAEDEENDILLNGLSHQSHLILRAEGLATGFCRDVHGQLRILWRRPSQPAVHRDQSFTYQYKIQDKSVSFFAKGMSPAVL
UniProt Q08J23, whole entry: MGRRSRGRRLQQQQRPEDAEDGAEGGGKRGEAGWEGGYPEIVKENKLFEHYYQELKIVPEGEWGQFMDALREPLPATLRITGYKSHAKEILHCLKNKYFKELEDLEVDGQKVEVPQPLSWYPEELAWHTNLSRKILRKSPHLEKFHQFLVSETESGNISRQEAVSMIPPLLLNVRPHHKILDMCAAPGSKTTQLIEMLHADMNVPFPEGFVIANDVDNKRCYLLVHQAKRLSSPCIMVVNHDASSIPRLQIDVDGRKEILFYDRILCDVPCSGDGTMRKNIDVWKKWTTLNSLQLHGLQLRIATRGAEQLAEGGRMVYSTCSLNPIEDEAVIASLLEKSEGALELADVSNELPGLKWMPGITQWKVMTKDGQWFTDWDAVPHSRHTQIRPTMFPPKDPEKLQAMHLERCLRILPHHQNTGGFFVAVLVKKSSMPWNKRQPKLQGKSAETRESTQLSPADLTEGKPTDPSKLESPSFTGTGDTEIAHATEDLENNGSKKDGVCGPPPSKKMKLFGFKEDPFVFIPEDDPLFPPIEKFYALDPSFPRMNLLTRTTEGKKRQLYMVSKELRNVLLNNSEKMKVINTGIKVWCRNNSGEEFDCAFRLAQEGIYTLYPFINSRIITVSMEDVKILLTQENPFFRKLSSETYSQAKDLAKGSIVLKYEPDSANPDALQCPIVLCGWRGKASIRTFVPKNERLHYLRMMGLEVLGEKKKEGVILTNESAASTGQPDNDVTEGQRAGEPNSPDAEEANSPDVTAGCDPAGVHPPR
UniProt Q10472: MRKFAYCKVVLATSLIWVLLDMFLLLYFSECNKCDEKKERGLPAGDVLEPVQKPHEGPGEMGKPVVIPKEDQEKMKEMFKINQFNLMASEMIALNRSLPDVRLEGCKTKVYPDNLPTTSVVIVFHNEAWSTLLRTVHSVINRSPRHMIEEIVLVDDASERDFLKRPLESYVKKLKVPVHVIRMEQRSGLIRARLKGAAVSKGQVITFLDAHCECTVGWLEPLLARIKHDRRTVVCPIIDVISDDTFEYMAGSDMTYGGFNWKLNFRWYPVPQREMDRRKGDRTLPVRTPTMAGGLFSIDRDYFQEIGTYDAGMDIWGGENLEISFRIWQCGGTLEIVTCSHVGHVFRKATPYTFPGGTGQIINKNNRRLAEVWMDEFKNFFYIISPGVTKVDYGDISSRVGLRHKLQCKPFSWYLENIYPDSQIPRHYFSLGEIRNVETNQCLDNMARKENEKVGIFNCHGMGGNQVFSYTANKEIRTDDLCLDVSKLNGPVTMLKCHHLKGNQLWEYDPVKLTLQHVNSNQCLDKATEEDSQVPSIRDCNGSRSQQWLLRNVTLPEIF
UniProt Q12882: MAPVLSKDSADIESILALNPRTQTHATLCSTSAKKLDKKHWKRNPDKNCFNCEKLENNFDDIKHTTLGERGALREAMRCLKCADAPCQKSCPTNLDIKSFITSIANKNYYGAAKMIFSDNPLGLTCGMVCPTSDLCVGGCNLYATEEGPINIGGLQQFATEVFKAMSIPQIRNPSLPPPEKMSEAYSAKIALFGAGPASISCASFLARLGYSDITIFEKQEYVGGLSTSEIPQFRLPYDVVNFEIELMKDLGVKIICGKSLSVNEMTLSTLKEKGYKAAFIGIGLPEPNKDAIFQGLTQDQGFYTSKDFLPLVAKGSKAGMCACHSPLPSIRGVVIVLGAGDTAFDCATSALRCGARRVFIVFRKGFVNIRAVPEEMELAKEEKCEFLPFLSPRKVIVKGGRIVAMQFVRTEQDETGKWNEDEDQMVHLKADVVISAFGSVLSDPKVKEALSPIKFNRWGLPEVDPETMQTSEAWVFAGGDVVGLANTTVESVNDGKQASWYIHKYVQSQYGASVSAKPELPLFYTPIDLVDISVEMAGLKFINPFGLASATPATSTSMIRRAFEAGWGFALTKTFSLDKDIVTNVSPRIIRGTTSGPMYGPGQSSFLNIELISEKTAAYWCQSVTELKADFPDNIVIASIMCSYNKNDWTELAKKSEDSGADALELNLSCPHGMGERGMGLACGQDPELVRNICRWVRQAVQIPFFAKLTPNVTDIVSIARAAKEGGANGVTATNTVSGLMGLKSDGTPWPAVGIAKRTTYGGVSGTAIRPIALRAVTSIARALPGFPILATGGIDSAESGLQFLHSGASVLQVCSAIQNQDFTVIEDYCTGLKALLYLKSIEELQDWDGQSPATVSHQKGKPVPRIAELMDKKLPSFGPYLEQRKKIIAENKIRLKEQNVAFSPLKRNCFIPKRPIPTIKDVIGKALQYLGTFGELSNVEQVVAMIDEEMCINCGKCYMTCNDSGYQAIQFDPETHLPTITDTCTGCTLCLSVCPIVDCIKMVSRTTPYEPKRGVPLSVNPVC
UniProt Q08AF3: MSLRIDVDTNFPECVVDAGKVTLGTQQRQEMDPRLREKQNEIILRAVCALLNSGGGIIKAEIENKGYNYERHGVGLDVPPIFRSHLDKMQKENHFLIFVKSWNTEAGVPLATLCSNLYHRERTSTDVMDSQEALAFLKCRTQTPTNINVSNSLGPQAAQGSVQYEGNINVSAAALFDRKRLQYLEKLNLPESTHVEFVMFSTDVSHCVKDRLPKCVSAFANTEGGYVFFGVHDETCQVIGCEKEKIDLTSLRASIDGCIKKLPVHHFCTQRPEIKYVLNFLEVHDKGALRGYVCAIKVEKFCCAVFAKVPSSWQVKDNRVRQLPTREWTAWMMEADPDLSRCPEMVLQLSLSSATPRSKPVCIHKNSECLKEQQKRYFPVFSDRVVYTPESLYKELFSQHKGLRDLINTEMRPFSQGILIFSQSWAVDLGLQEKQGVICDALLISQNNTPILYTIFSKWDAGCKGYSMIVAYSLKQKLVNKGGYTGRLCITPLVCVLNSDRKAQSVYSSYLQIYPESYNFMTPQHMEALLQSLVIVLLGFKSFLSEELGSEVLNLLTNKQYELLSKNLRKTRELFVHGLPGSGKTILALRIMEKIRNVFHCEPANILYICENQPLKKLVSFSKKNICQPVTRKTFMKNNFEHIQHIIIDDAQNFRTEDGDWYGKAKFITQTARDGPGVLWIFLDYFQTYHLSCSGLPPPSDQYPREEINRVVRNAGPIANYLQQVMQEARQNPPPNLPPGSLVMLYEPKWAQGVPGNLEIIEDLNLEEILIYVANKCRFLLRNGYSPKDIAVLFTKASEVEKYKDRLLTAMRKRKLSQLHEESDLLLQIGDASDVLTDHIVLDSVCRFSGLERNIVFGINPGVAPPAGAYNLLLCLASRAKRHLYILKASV

Compound: Nc1nc2c(ncn2[C@@H]2O[C@H](COP(=O)(O)OP(=O)(O)OP(=O)(O)O)[C@@H](O)[C@H]2O)c(=O)[nH]1 [guanosine triphosphate]
Assay: NP40-soluble protein abundance relative to vehicle (solubility fold change) (ratio); higher = more soluble protein in presence of GTP
Experimental: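 Solubility proteome profiling in Jurkat crude lysate. Lysate was treated with Mg-GTP (0.1-10 mM) for 10 min at room temperature and 3 min at 37 °C, then solubilised with 0.8% NP40 and benzonase, followed by ultracentrifugation. Proteins were quantified by TMT10 LC-MS/MS; the value is the NP40-soluble abundance relative to the NP40-processed vehicle, from 3 independent experiments.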

Target	NP40-soluble protein abundance (concentration: 0.1mM)	NP40-soluble protein abundance (concentration: 0.5mM)	NP40-soluble protein abundance (concentration: 1mM)	NP40-soluble protein abundance (concentration: 2mM)	NP40-soluble protein abundance (concentration: 4mM)	NP40-soluble protein abundance (concentration: 6mM)	NP40-soluble protein abundance (concentration: 8mM)	NP40-soluble protein abundance (concentration: 10mM)
UniProt Q0PNE2 and related entries	1.05 ± 0.015	1.14 ± 0.29	1.02 ± 0.21	1.08 ± 0.1	1.2 ± 0.17	1.08 ± 0.28	1.06 ± 0.11	1.03 ± 0.018
UniProt Q08J23 and related entries	1.03 ± 0.013	1.02 ± 0.026	0.996 ± 0.017	0.973 ± 0.025	1.01 ± 0.03	1.01 ± 0.021	1.05 ± 0.015	1.04 ± 0.012
GALNT1 (UniProt Q10472)	0.963 ± 0.026	1.03 ± 0.077	0.937 ± 0.02	0.994 ± 0.071	0.962 ± 0.048	0.982 ± 0.048	0.963 ± 0.049	0.965 ± 0.039
DPYD (UniProt Q12882)	1.05 ± 0.026	1.04 ± 0.042	1.02 ± 0.0055	1.03 ± 0.02	0.997 ± 0.015	0.996 ± 0.035	1 ± 0.03	0.97 ± 0.034
SLFN5 (UniProt Q08AF3)	1.12 ± 0.081	1.12 ± 0.12	1.05 ± 0.072	1.09 ± 0.1	1.08 ± 0.11	1.04 ± 0.11	1.03 ± 0.029	1.01 ± 0.033
